PubChem BioAssay AID1259297 | Sanger Institute – 2017

Assay: 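Kinases whose loss kills cells on their own or with targeted drugs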 (primary screen)
System: human RCM1 colorectal cancer cell line
Knock-down reagent: siRNA pool against human genes
Challenge: separate arms: DMSO vehicle, or one anchor drug at a mild dose: BYL719 1 µM, cetuximab 5 µg/ml, trametinib 10 nM
Measurement: 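Replicate-mean well viability as a share of non-targeting pool control, a robust z-score without drug, and synergy scores for BYL719, cetuximab and trametinib arms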
Direction: viability z-score, knock-down alone: higher = more viable cells than non-targeting controls
Active means: 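Essential when the viability robust z-score for knock-down alone is below -3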
Calls: active = essential when knocked down alone; inactive = no clear loss of viability alone
The deposit covers 794 reagents; shown is a random part of them. 13 of all reagents (1.6%) count as active. 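Calls reflect knock-down without drug only; drug synergy is judged separately, with scores above 0.15 counted as synergy.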 Not all columns of the deposit are shown. Not stated in the record: the amount of reagent, the time to read-out.

With knock-down of PRKG1 (GeneID 5592), the screen gave viability z-score, knock-down alone 0.9; inactive.
For LYN (GeneID 4067), the entry reads viability z-score, knock-down alone 0.9; inactive.
LATS1 (GeneID 9113) gave viability z-score, knock-down alone -0.137; inactive.
SF3B1 (GeneID 23451) gave viability z-score, knock-down alone -1.24; inactive.
With knock-down of SIK3 (GeneID 23387), the screen gave viability z-score, knock-down alone 0.228; inactive.
RPS6KA1 (GeneID 6195) scored viability z-score, knock-down alone 0.9; inactive.
Against SMG1 (GeneID 23049) the deposit lists viability z-score, knock-down alone 0.9; inactive.

Already shown: 2 of the entries above.
LYN (GeneID 4067) → viability z-score, knock-down alone = 0.9; call = inactive
LATS1 (GeneID 9113) → viability z-score, knock-down alone = -0.137; call = inactive

The listing continues:
For STK11 (GeneID 6794), the values are viability z-score, knock-down alone -0.483; inactive.
Silencing of SCYL1 (GeneID 57410) gave: viability z-score, knock-down alone 0.9; inactive.
Depletion of CALM1 (GeneID 801) gave: viability z-score, knock-down alone 0.9; inactive.
With knock-down of BRWD1 (GeneID 54014), the record shows viability z-score, knock-down alone 0.493; inactive.
With knock-down of ACO1 (GeneID 48) the results were viability z-score, knock-down alone 0.9; inactive.
